Assay results: PubChem BioAssay AID298 (DTP/NCI, 2004)
The list shows only some results of the screen, not a fair sample: it gathers tests that were run many times, whatever their T/C, doses with no T/C, and many T/C values between a quarter and a half above the control. Other doses and runs of a compound stand elsewhere. T/C: endpoint of the treated group in % of that of the vehicle group. Schedule codes are those of the source, taken here to give the interval after Q, in days (D) or hours (H), and the number of doses after X. Some T/C values are followed by the survivors on the day toxicity was checked, most often the fifth; without a count, all were alive then. Some entries give survivors of the animals treated and no T/C: the source files T/C as zero there, which appears to mark a toxic dose or a test without result, not a measured value. Counts of survivors are from the toxicity check (mostly the fifth day) where no day follows; animals may have died later.

System: MX-1 breast xenograft, intrarenal, nude mice, tumor weight
Assay: NCI In Vivo Anticancer Drug Screen. Data for tumor model Human Mammary Carcinoma MX-1 Xenograft (intrarenal inoculation) in NU/NU BALB/C (nude) mice
Settings: T/C endpoint: mean tumor weight change, higher T/C = larger tumour; for T/C: evaluated on day 11
Summary of the method: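 Efficacy in vivo: tumor measurement or survival of treated animals divided by that of vehicle-dosed controls.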

[1] = dose: 400.0 mg/kg/injection, schedule: Q04DX003 (ip), vehicle: saline with Tween-80

## CCN(CC)CCn1[nH]c2c3ccc(=O)cc3sc3c(NCCN)ccc1c32
dose: 25.0 mg/kg/injection, schedule: Q04DX003 (ip), vehicle: water
  survivor count: 0 of 6 on day 11
dose: 50.0 mg/kg/injection, schedule: Q04DX003 (ip), vehicle: water
  survivor count: 0 of 6 on day 11

## CC[C@@]1(O)C(=O)OCc2c1cc1n(c2=O)Cc2cc3c(N)cccc3nc2-1
dose: 4.0 mg/kg/injection, schedule: Q04DX003 (ip), vehicle: saline with Tween-80
  survivor count: 1 of 6 on day 11
dose: 8.0 mg/kg/injection, schedule: Q04DX003 (ip), vehicle: saline with Tween-80
  survivor count: 0 of 6 on day 11

## CC1=C(C(N)=O)C(c2ccccc2)NC(=S)N1 (stereo not drawn)
dose: 300.0 mg/kg/injection, schedule: Q04DX003 (ip), vehicle: Klucel (hydroxypropylcellulose) (HPC)
  survivor count: 3 of 6 on day 11
dose: 600.0 mg/kg/injection, schedule: Q04DX003 (ip), vehicle: Klucel (hydroxypropylcellulose) (HPC)
  survivor count: 1 of 6 on day 11
dose: 1200.0 mg/kg/injection, schedule: Q04DX003 (ip), vehicle: Klucel (hydroxypropylcellulose) (HPC)
  survivor count: 0 of 6 on day 11

## NC(Cc1ccc(N(CCCl)CCCl)cc1)C(=O)O (stereo not drawn)
dose: 20.0 mg/kg/injection, schedule: Q04DX003 (sc), vehicle: Klucel (hydroxypropylcellulose) (HPC)
  survivor count: 3 of 6 on day 11
dose: 40.0 mg/kg/injection, schedule: Q04DX003 (sc), vehicle: Klucel (hydroxypropylcellulose) (HPC)
  survivor count: 0 of 6 on day 11
dose: 80.0 mg/kg/injection, schedule: Q04DX003 (sc), vehicle: Klucel (hydroxypropylcellulose) (HPC)
  survivor count: 0 of 6 on day 11

## Cc1ccc(C(=Nc2ccccc2)N=P(c2ccccc2)(c2ccccc2)c2ccccc2)cc1
dose: 200.0 mg/kg/injection, schedule: Q04DX003 (ip), vehicle: saline with Tween-80
  survivor count: 1 of 6 on day 11
[1]
  survivor count: 0 of 6 on day 11

## O=C(CCCN1CCC(O)(c2cccc(C(F)(F)F)c2)CC1)c1ccc(F)cc1
dose: 50.0 mg/kg/injection, schedule: Q01DX010 (sc), vehicle: Klucel (hydroxypropylcellulose) (HPC)
  survivor count: 1 of 3 on day 11
dose: 100.0 mg/kg/injection, schedule: Q01DX010 (sc), vehicle: Klucel (hydroxypropylcellulose) (HPC)
  survivor count: 0 of 3 on day 11
dose: 200.0 mg/kg/injection, schedule: Q01DX010 (sc), vehicle: Klucel (hydroxypropylcellulose) (HPC)
  survivor count: 0 of 3 on day 11

## CNC(=O)N(C)N=NCCCl
[1]
  survivor count: 1 of 6 on day 11
dose: 666.66 mg/kg/injection, schedule: Q04DX003 (ip), vehicle: saline with Tween-80
  survivor count: 0 of 6 on day 11
dose: 800.0 mg/kg/injection, schedule: Q04DX003 (ip), vehicle: saline with Tween-80
  survivor count: 0 of 5 on day 11

## CN(C)c1nc(N(C)C)[n+]([O-])c(N(C)C)n1
dose: 50.0 mg/kg/injection, schedule: Q01DX010 (ip), vehicle: water
  T/C: 133 % of control
dose: 100.0 mg/kg/injection, schedule: Q01DX010 (ip), vehicle: water
  T/C: 146 % of control

## Oc1cccc2ccccc12
dose: 300.0 mg/kg/injection, schedule: Q04DX003 (ip), vehicle: water
  survivor count: 1 of 6 on day 11
dose: 600.0 mg/kg/injection, schedule: Q04DX003 (ip), vehicle: water
  survivor count: 0 of 6 on day 11
dose: 1200.0 mg/kg/injection, schedule: Q04DX003 (ip), vehicle: water
  survivor count: 0 of 6 on day 11

## CN(C)c1nc(N(C)C)nc(N(C)C)n1
dose: 240.0 mg/kg/injection, schedule: Q01DX010 (sc), vehicle: saline with Tween-80
  survivor count: 0 of 2 on day 11
dose: 400.0 mg/kg/injection, schedule: Q01DX010 (sc), vehicle: saline with Tween-80
  survivor count: 0 of 2 on day 11
dose: 600.0 mg/kg/injection, schedule: Q04DX003 (sc), vehicle: saline with Tween-80
  survivor count: 3 of 6 on day 11

## C=CC(=O)N1CN(C(=O)C=C)CN(C(=O)C=C)C1
dose: 25.0 mg/kg/injection, schedule: Q01DX010 (sc), vehicle: saline with Tween-80
  survivor count: 0 of 3 on day 11
dose: 50.0 mg/kg/injection, schedule: Q01DX010 (sc), vehicle: saline with Tween-80
  survivor count: 0 of 3 on day 11

## Cc1ccc(/C=C/C(=O)/C=C/c2ccc(C)o2)o1
dose: 400.0 mg/kg/injection, schedule: Q04DX003 (ip), vehicle: DMSO
  T/C: 146 % of control

## COc1cc(C(C)c2cc3c(cc2OCCO)OCO3)cc(OC)c1OC (stereo not drawn)
dose: 1200.0 mg/kg/injection, schedule: Q04DX003 (ip), vehicle: saline
  survivor count: 0 of 6 on day 11

## CO[C@H](/C(C)=C/C=C/C(C)=C/c1coc(C)n1)[C@H](C)[C@H]1C[C@@H](O)[C@@]2(C)O[C@H]2/C=C/[C@@H](C)[C@@H]2C[C@@H](CC(=O)O2)C[C@H]2O[C@@H]2C(=O)O1
dose: 1.0 mg/kg/injection, schedule: Q04DX003 (sc), vehicle: Klucel (hydroxypropylcellulose) (HPC)
  survivor count: 3 of 6 on day 11
dose: 2.0 mg/kg/injection, schedule: Q04DX003 (ip), vehicle: Klucel (hydroxypropylcellulose) (HPC)
  survivor count: 0 of 6 on day 11
dose: 2.0 mg/kg/injection, schedule: Q04DX003 (sc), vehicle: Klucel (hydroxypropylcellulose) (HPC)
  survivor count: 1 of 6 on day 11

## COC1C(OC(=O)/C=C/C=C/C=C/C=C/C(=O)O)CCC2(CO2)C1C1(C)OC1CC=C(C)C (stereo not drawn)
dose: 1200.0 mg/kg/injection, schedule: Q04DX003 (sc), vehicle: saline
  survivor count: 0 of 6 on day 11

## NC(CS)C(=O)O (stereo not drawn)
dose: 300.0 mg/kg/injection, schedule: Q04DX003 (ip), vehicle: saline with Tween-80
  survivor count: 1 of 6 on day 11
dose: 600.0 mg/kg/injection, schedule: Q04DX003 (ip), vehicle: saline with Tween-80
  survivor count: 1 of 6 on day 11
dose: 1200.0 mg/kg/injection, schedule: Q04DX003 (ip), vehicle: saline with Tween-80
  survivor count: 0 of 6 on day 11
dose: 2400.0 mg/kg/injection, schedule: Q04DX003 (ip), vehicle: saline with Tween-80
  survivor count: 0 of 6 on day 11

## COc1cccc2c1C(=N)c1c(O)c3c(c(O)c1C2=O)C[C@@](O)(C(C)=O)C[C@@H]3OC1CC(N)C(O)C(C)O1 (stereo partly drawn)
dose: 32.0 mg/kg/injection, schedule: Q01DX010 (sc), vehicle: water
  survivor count: 3 of 6 on day 11

## CO[C@@H]1C2=CC=CC=C[C@H]2n2c(=O)n(C)c(=O)n21
dose: 600.0 mg/kg/injection, schedule: Q04DX003 (ip), vehicle: other
  survivor count: 3 of 6 on day 11

## O=NN(CCCl)C(=O)NCCO
dose: 25.0 mg/kg/injection, schedule: Q04DX003 (sc), vehicle: water
  survivor count: 0 of 3 on day 11

## O=C(O)[C@H](Cc1ccccc1)N1C(=O)c2ccccc2C1=O
dose: 1200.0 mg/kg/injection, schedule: Q04DX003 (ip), vehicle: DMSO
  survivor count: 0 of 6 on day 11

## COc1cccc2c1C(=O)c1c(O)c3c(c(O)c1C2=O)CC(O)(C(=O)CO)CC3OC1CC(N)C(O)C(C)O1 (stereo not drawn)
dose: 100.0 mg/kg/injection, schedule: Q01DX010 (sc), vehicle: saline
  survivor count: 2 of 6 on day 11
dose: 200.0 mg/kg/injection, schedule: Q01DX010 (sc), vehicle: saline
  survivor count: 0 of 6 on day 11

## N/C(=N/N=C/c1cc(Br)cc(Br)c1O)NO
dose: 100.0 mg/kg/injection, schedule: Q04DX003 (ip), vehicle: suspension in saline
  T/C: 140 % of control [5 of 6 alive on day 11]
dose: 400.0 mg/kg/injection, schedule: Q04DX003 (ip), vehicle: suspension in saline
  survivor count: 0 of 6 on day 11

## CC(=O)O[C@H]1C(=O)[C@@]2(C)[C@H]([C@H](OC(=O)c3ccccc3)[C@]3(O)C[C@H](OC(=O)[C@H](O)[C@@H](NC(=O)c4ccccc4)c4ccccc4)C(C)=C1C3(C)C)[C@]1(OC(C)=O)CO[C@@H]1C[C@@H]2O
dose: 7.5 mg/kg/injection, schedule: Q01DX009 (ip), vehicle: Klucel (hydroxypropylcellulose) (HPC)
  survivor count: 3 of 5 on day 11
dose: 15.0 mg/kg/injection, schedule: Q01DX009 (ip), vehicle: Klucel (hydroxypropylcellulose) (HPC)
  survivor count: 0 of 5 on day 11
dose: 20.0 mg/kg/injection, schedule: Q01DX009 (ip), vehicle: Klucel (hydroxypropylcellulose) (HPC)
  survivor count: 2 of 6 on day 11
dose: 22.4 mg/kg/injection, schedule: Q01DX009 (ip), vehicle: Klucel (hydroxypropylcellulose) (HPC)
  survivor count: 3 of 6 on day 11
dose: 30.0 mg/kg/injection, schedule: Q01DX009 (ip), vehicle: Klucel (hydroxypropylcellulose) (HPC)
  survivor count: 1 of 6 on day 11
dose: 40.0 mg/kg/injection, schedule: Q01DX009 (ip), vehicle: Klucel (hydroxypropylcellulose) (HPC)
  survivor count: 0 of 6 on day 11

## CCOc1ccc(C(C)c2cc3c(cc2OC)OCO3)cc1 (stereo not drawn)
dose: 1200.0 mg/kg/injection, schedule: Q04DX003 (ip), vehicle: distilled water + Tween-80
  survivor count: 0 of 6 on day 11
